Read-outs that look alike come from different tables or passages of the source. The match of structure and compound is tentative. A value given as a limit tells only on which side of the number the result lay.

By UniProt entry, the sequences of proteins in these tests, tags left out. Residues count along the entry.
UniProt P15056, 416-766: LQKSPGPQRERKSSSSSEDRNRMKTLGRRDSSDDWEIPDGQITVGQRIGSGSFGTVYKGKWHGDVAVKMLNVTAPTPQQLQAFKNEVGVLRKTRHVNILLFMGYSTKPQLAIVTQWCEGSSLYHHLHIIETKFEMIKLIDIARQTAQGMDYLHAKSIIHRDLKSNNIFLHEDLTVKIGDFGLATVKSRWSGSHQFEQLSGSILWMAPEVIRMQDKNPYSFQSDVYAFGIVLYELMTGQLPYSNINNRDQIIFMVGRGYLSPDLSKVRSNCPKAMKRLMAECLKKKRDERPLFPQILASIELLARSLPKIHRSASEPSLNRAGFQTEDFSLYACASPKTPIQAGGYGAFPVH
UniProt P04049, 307-648 Y340D/Y341D: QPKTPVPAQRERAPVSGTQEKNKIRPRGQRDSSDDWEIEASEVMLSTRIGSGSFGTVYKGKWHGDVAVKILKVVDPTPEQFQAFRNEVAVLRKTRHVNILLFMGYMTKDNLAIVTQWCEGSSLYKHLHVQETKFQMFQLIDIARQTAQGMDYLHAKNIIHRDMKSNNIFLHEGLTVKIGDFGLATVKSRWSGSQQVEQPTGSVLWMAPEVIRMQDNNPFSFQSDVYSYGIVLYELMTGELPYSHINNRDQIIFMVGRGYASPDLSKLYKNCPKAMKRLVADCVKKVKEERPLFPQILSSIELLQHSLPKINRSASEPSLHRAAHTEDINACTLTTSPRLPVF

We go through 1 molecule from patent US20260176260A1, “DUAL RAF AND TUBULIN INHIBITORS AND METHODS OF USE THEREOF” (Deciphera Pharmaceuticals, LLC, priority 2023, published 2026).

For one experiment, the system named is Pa16c cells. The experiment can be described thus: Pa16c cell proliferation assay (resazurin). To be noted: read-out: Pa16c; Table 2, inhibition of cell proliferation.
The next experiment has as its target B-Raf kinase (Homo sapiens, UniProt P15056). Kind of experiment: Biochemical assay for B-Raf (coupled pyruvate kinase/lactate dehydrogenase). To be noted: read-out: BRAF.
The subject of the next experiment is HCT-116 cells. The experiment can be described thus: HCT-116 cell proliferation assay (resazurin). To be noted: read-out: HCT-116.
In another experiment the test system is HPAF-II cells. Kind of experiment: HPAF-II cell proliferation assay (resazurin). To be noted: read-out: HPAF-II.
The target in a further experiment is C-Raf kinase (Homo sapiens, UniProt P04049, Y340D/Y341D). The experiment can be described thus: Biochemical assay for C-Raf (coupled pyruvate kinase/lactate dehydrogenase). The settings on record: read-out: CRAF.
Another experiment relates to MiaPaca-2 cells. The experiment can be described thus: MiaPaca-2 cell proliferation assay (resazurin). The settings on record: read-out: MiaPaca-2.
[1] abbreviates: Table 1, inhibition of biochemical activity.
The mark [2] stands for this setting: Table 2, inhibition of cell proliferation.

Regarding `CNC(=O)c1cc(-c2cc(-c3cc(NC(=O)c4ccc(C(F)(F)F)nc4)ccc3C)ccn2)ccn1`, the IC50 lay within 1000 to 10000 nM with Pa16c cells; 100 to 500 nM at B-Raf kinase (setting [1]); 100 to 500 nM on B-Raf kinase (Table 3); 100 to 500 nM in the experiment with HCT-116 cells (setting [2]); 100 to 500 nM with HCT-116 cells (Table 3); 100 to 500 nM with HPAF-II cells (setting [2]). For the same molecule, the IC50 in the experiment on HPAF-II cells (Table 3) is 100 to 500 nM; on C-Raf kinase (setting [1]), less than 100 nM; at C-Raf kinase (Table 3) it was less than 100 nM; in the experiment on MiaPaca-2 cells (setting [2]), 100 to 500 nM; with MiaPaca-2 cells (Table 3), 100 to 500 nM.
